In patent publication US20020103345A1 one finds binding data, which are given here for one substance.

Amino acid sequences for entries named in this document (tags omitted). A change or cut given only in a name is not applied to a line headed by its entry. Chains listed by the source or under a name are the forms on record and can include a tag or linker. Residues count along the entry.
UniProt P35918, residues 20-762: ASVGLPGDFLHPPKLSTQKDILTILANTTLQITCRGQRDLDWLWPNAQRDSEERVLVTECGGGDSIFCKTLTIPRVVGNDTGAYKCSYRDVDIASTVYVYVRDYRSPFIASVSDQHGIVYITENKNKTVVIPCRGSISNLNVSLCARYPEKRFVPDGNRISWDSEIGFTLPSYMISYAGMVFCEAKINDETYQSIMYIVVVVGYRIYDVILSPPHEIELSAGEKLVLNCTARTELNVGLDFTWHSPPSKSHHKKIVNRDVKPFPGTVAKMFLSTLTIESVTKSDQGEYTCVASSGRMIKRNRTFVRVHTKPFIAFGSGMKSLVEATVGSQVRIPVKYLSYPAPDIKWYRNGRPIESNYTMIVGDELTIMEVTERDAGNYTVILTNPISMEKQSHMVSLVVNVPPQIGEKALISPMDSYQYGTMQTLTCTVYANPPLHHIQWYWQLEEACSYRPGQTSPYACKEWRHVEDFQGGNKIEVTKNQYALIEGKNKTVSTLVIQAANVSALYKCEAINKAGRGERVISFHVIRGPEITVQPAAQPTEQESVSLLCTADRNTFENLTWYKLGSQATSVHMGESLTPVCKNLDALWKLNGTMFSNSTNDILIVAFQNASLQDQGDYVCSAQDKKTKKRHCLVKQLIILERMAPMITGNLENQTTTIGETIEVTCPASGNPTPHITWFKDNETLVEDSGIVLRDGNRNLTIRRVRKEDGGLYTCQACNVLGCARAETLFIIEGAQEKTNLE
Vascular endothelial growth factor (VEGF165) (P15692, form named): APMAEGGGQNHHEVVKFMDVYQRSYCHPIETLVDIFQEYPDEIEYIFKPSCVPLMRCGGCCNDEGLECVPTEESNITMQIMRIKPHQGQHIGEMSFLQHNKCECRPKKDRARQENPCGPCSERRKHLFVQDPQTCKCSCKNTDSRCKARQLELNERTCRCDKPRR

Results are given in words; binding and its absence hold for the method and conditions named. Some binding calls cover weakened binding; strength is not graded here.

In the assay the target is fetal liver kinase 1 (Flk-1)-AP (mouse) (UniProt P35918). Nature of the assay: blocking ELISA, Flk-1-AP on VEGF165-coated plate. In general terms: In an ELISA, binding on a coated surface is turned into a signal by an enzyme label.

Consider “Vascular endothelial growth factor (VEGF165) (from UniProt P15692 27-191) (ligand)”, for which the binding entry is “binds”.
